According to patent US10603357B2 (Universite de Lorraine, priority 2004, dated 2020):
Where a sequence shows no end group, the ends are not given.

Test: peptide made by a vendor
Settings: whole synthesis

For LQVTDSGLYRCVIYHPP, the isolated yield was “greater than 99%”.
